# From PubChem BioAssay AID504467 (National Center for Advancing Translational Sciences (NCATS), 2011)
# Screen size: about 330,000 compounds; about 7,700 (2.3%) were called active. Inconclusive results, whose numbers are uncertain, are shown with a selection of clear calls. Calls follow the shape of the dose curve; as a rule, active = well fitted inhibition curve with a large enough effect; inconclusive = small, poorly fitted or top-dose-only effect, or effect the other way; inactive = flat fitted curve, though single readings scatter. Potencies beside an inconclusive call are fits to weak or partial responses and may not hold up.
# Experiment: qHTS screen for small molecules that inhibit ELG1-dependent DNA repair in human embryonic kidney (HEK293T) cells expressing luciferase-tagged ELG1; also: nearly all actives have a fitted effect of over 55% in size
# Conditions: HEK293T ELG1-luciferase reporter, luminescence, 16 h, DNA damage induced by 5-fluorouridine; series mostly up to 46.1 µM
# Method in brief: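 Luminescence from the luciferase reporter, measured 30 min after ONE-Glo reagent at room temperature, was the read-out. Beforehand, 2,000 cells per well were exposed for 16 hr at 37 °C to 5-fluorouridine together with compound or vehicle.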
# Potency is read from the fitted curve at half-maximal effect.
row,Structure (SMILES),Potency
1,O=C(CN1CCN(c2ccccc2O)CC1)Nc1ccc2c(c1)CCC2,inactive
2,CCCCOC(=O)c1ccc(NC(=O)C(=O)CC(=O)c2ccc(OC)cc2)cc1,inactive
3,O=C(CSc1ccc2c(c1)OCCO2)Nc1ccc2c(c1)OCO2,"inconclusive: 29.1 µM [inhibitor, single point]"
4,CNC(=S)N/N=C/c1cn(CCOc2cccc(OC)c2)c2ccccc12,inactive
5,O=C(COC(=O)c1ccc2ncsc2c1)Nc1ncc(Cl)cc1Cl,"inconclusive: 20.6 µM [activator, single point]"
6,CC(C)(C)c1ccc(-n2ncc3c2CCCC3NC(=O)C2(C(N)=O)CC2)cc1 (stereo unspecified),"inconclusive: 0.517 µM [inhibitor, full curve, poor fit]"
7,Cn1cc([N+](=O)[O-])c(C(=O)NC2CCCCCC2)n1,"inconclusive: 14.6 µM [activator, partial curve, poor fit]"
8,CCOC(=O)c1sc2nc[nH]c(=O)c2c1C,"inconclusive: 14.6 µM [activator, partial curve, poor fit]"
9,COc1ccc(NC(=O)C#Cc2ccccc2)cc1OC,"inconclusive: 35.5 µM [inhibitor, single point]"
10,CCCn1ncc(/C=N/O)c1C,"inconclusive: 9.2 µM [inhibitor, partial curve]"
11,O=[N+]([O-])c1cc(Cl)ccc1N1CCCC1,inactive
12,CC(=O)c1ccc(NC(=O)c2cccc(S(=O)(=O)N3CCN(C)CC3)c2)cc1,"inconclusive: 16.4 µM [activator, single point]"
13,Nn1c(SCc2cccc(F)c2)nnc1-c1cccnc1,"inconclusive: 20.6 µM [activator, partial curve, poor fit]"
14,CCOCCCN(Cc1ccco1)C(=O)c1cc2c(=O)[nH]c3ccc(C)cc3c2s1,active: 16.4 µM
15,CC(C)Cc1nnc(NC(=O)CCC(=O)N2CCN(c3ccc([N+](=O)[O-])cc3)CC2)s1,active: 9.2 µM
16,N#Cc1ccc(N2Cc3ccccc3C2=NC(=O)c2cccnc2Cl)cc1,"inconclusive: 16.4 µM [activator, partial curve]"
17,CCC(C)c1ccc(NC(=S)Nc2ccc(OC)cc2)cc1 (stereo unspecified),inactive
18,O=C(O)c1cccc(-n2cccc2C=C2C(=O)c3ccccc3C2=O)c1,"inconclusive: 29.1 µM [activator, single point]"
19,O=S(=O)(c1ccccc1)n1ccc(-c2cnc(-c3ccccc3)s2)n1,"inconclusive: 20.6 µM [activator, partial curve]"
20,CCn1c(N2CCN(S(=O)(=O)c3ccccc3)CC2)nc2ccccc21,"inconclusive: 16.4 µM [inhibitor, single point]"
21,COCCNC(=O)Cn1c(=O)n(CCCCCC(=O)Nc2ccccc2)c(=O)c2sccc21,"inconclusive: 20.6 µM [activator, single point]"
22,N/C(=N\OC(=O)c1ccc(F)cc1)c1ccccc1,"inconclusive: 18.4 µM [activator, partial curve]"
23,CC1CCc2cc(F)ccc2N1C(=O)CSc1nnc2c(n1)[nH]c1ccccc12 (stereo unspecified),"inconclusive: 23.1 µM [inhibitor, single point]"

row,Structure (SMILES),Potency
1,Cc1ccc(Nc2nnc(SCC3CCCCO3)s2)cc1 (stereo unspecified),"inconclusive: 20.6 µM [activator, partial curve]"
2,Cn1nc(C(=O)N2CCOCC2)c2ccccc2c1=O,"inconclusive: 9.2 µM [activator, partial curve]"
3,Cc1ccc2nc(NC(=O)C3CCN(S(=O)(=O)c4cccnc4)CC3)sc2c1,active: 16.4 µM
4,Cc1cc(=O)[nH]c2ccc(Cl)cc12,"inconclusive: 20.6 µM [activator, partial curve, poor fit]"
5,CCCC(=O)Nc1nnc(SCC(=O)NCc2ccc3c(c2)OCO3)s1,inactive
6,CCOc1ccc(OCCC(=O)NNC(=O)c2cc(OC)c(OC)c(OC)c2)cc1,"inconclusive: 10.3 µM [inhibitor, partial curve, poor fit]"
7,CN(CC(=O)Nc1ccc(Cl)c(Cl)c1)C(=O)C1CCCC1,"inconclusive: 23.1 µM [inhibitor, partial curve, poor fit]"
8,O=C(C1CCCN(c2ncnc3c2nc2n3CCCCC2)C1)N1CCN(c2ccccc2)CC1 (stereo unspecified),"inconclusive: 29.1 µM [inhibitor, single point]"
9,CCN(CC)CCCNC(=O)CN1N=C(c2ccc(OC)cc2)CCC1=O,inactive
10,COc1ccc(-c2noc(CN(C)Cc3ccc(C)o3)n2)cc1,"inconclusive: 32.6 µM [activator, partial curve, poor fit]"
11,O=C(Cc1ccccc1)N[C@H](c1ccccc1)P(=O)(O)CO,inactive
12,CN(C/C=C/c1ccccc1)Cc1cccc2ccccc12,inactive
13,Cc1nc2ccccc2c2c1C(=O)N(Cc1cccnc1)C2=O,inactive
14,COc1ccc(N2C(=O)CC(Sc3ncn[nH]3)C2=O)c(OC)c1 (stereo unspecified),inactive
15,O=C(NCc1ccccn1)c1ccc(Cl)s1,"inconclusive: 20.6 µM [activator, partial curve, poor fit]"
16,Cc1cc(N/N=C/c2ccc(O)c(C)c2O)nc(-c2ccccc2O)n1,active: 2.91 µM
17,CCOC(=O)c1c(-c2ccc(OC)cc2)oc2ccc(OCC(N)=O)cc12,"inconclusive: 16.4 µM [inhibitor, partial curve, poor fit]"
18,COc1cccc(CC2(CO)CCCN(Cc3cn(C)c4ccccc34)C2)c1 (stereo unspecified),"inconclusive: 0.58 µM [inhibitor, full curve]"
19,Cc1ccc(F)c(NC(=O)c2c(-c3ccccc3)noc2C)c1,inactive
20,O=C(N/N=C/c1ccc([N+](=O)[O-])s1)c1cccc(Br)c1,active: 10.3 µM
21,Cc1ccc(-c2noc(CN(C)C(=O)c3ccoc3C)n2)cc1,"inconclusive: 14.6 µM [activator, partial curve, poor fit]"
22,O=C(NCCCO)Nc1ccc2nc(-c3ccco3)c(-c3ccco3)nc2c1,inactive
23,CNC(=O)c1[nH]cnc1C(=O)Nc1cccc(Cl)c1,"inconclusive: 20.6 µM [activator, partial curve]"

# Ordered by number of heavy atoms (ascending): some entries from above.
row,Structure (SMILES),Potency
9,COc1ccc(NC(=O)C#Cc2ccccc2)cc1OC,"inconclusive: 35.5 µM [inhibitor, single point]"
4,CNC(=S)N/N=C/c1cn(CCOc2cccc(OC)c2)c2ccccc12,inactive
22,O=C(NCCCO)Nc1ccc2nc(-c3ccco3)c(-c3ccco3)nc2c1,inactive
